## Results from one PubChem assay

The results are deposited in PubChem (AID1508629; NCATS, 2021).

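SH-SY5Y neuroblastoma cells held with compound about 46 h, thapsigargin added for the last 4 h, then viability measured by luminescence. Each compound ran as a titration series from about 0.00065 to 190 µM. The number is the fitted potency (AC50, nM) of the viability curve; a lower value means a more potent effect. Calls come from curve class and fit, so inconclusive covers weak, poorly fitted, top-dose-only or rising curves.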

Values are in nM. Every entry below has the call inconclusive. These entries are mostly ones the record files as inconclusive; other results of the assay are not listed here. A potency from a partial, single-point or poor curve is only a rough figure. Some entries filed as inconclusive have a full curve. The first word of each remark tells which way the curve ran; it can be opposite to the aim of the assay.

For COc1cc2ncnc(Nc3ccc(F)c(Cl)c3)c2cc1OCCCN1CCOCC1 the result was potency 17782 nM (cytotoxic, partial curve). NC(N)=NC(N)=Nc1ccccc1 read potency 112.2 nM (rising, full curve). With COc1cccc(Nc2ncc3nc(-c4ccccc4)c(=O)n(C[C@H]4CCCO4)c3n2)c1 the assay gave potency 177.8 nM (rising, full curve). With FC(F)(F)c1ccccc1-c1nc(NC2CCNCC2)c2ccccc2n1 the assay gave potency 15848 nM (cytotoxic, partial curve). Result for O=c1c(-c2cccs2)nc2cnc(N3CCNCC3)nc2n1CCc1ccccc1 was potency 112.2 nM (rising, full curve). With CN(C)CCC(c1ccccc1)c1ccccn1 (configuration not stated) the assay gave potency 12589 nM (cytotoxic, full curve). With O[Si](CCCN1CCCCC1)(c1ccc(F)cc1)C1CCCCC1 (configuration not stated) the assay gave potency 12589 nM (cytotoxic, full curve). CC(C)NCC(O)c1ccc(O)c(O)c1 (configuration not stated) gave potency 22387 nM (cytotoxic, partial curve).

Cc1cc(-c2ccc(N=Nc3ccc4c(S(=O)(=O)O)cc(S(=O)(=O)O)c(N)c4c3O)c(C)c2)ccc1N=Nc1ccc2c(S(=O)(=O)O)cc(S(=O)(=O)O)c(N)c2c1O read potency 25118 nM (cytotoxic, partial curve). Cc1ccccc1-c1cncnc1N1CCN(C)CC1 gave potency 177.8 nM (rising, full curve). Cc1cccc(CNc2ncnc3ccc(-c4ccccc4CN(C)C)cc23)c1 gave potency 112.2 nM (rising, full curve). With COc1ccc2c(c1)[C@@]13CCCC[C@H]1[C@@H](C2)NCC3 the assay gave potency 28183 nM (cytotoxic, partial curve). For C=CCN1CCc2cccc3c2C1Cc1ccc(O)c(O)c1-3 (configuration not stated) the result was potency 223.9 nM (rising, full curve). N#C/C(=C\c1c[nH]c2ccccc12)C(=O)c1ccc(O)c(O)c1 read potency 14125 nM (cytotoxic, partial curve). For Cc1noc(C)c1-c1nc(N2CCNCC2)c2ccccc2n1 the result was potency 79.4 nM (rising, full curve). Result for c1ccc2c(N3CCNCC3)nc(-c3ccc4c(c3)OCO4)nc2c1 was potency 112.2 nM (rising, full curve).

For CN1CCN(c2nc(-c3cccc(C#N)c3)nc3ccccc23)CC1 the result was potency 22387 nM (cytotoxic, partial curve). Result for COc1ccc(C2Nc3ccccc3C(=O)N2c2ccccc2)cc1COc1ccc(NC(C)=O)cc1 (configuration not stated) was potency 18826 nM (cytotoxic, partial curve, poor fit). c1cc(N2CCCC3(CCNCC3)C2)ccn1 gave potency 28183 nM (cytotoxic, single point). With CCCCCCCCCCCCCCCC(=O)OC(CO)CO the assay gave potency 398.1 nM (rising, full curve). O=C(O)c1cc[c]([Hg][Cl])cc1 gave potency 12589 nM (cytotoxic, partial curve, poor fit). COc1cccc(Cn2c(=O)c(C)nc3cnc(N4CCN(C)CC4)nc32)c1 read potency 14125 nM (cytotoxic, partial curve, poor fit). COc1cccc(-c2nc(N3CCNCC3)c3ccccc3n2)c1 read potency 281.8 nM (rising, full curve). With CN(C)CCC=C1c2ccccc2CCc2ccccc21 the assay gave potency 79.4 nM (rising, full curve).

CCCN1CCc2cc(O)cc3c2[C@H]1Cc1ccc(O)c(O)c1-3 gave potency 177.8 nM (rising, full curve, poor fit). Result for NC1CCc2cc(O)c(O)cc2C1 (configuration not stated) was potency 7943 nM (cytotoxic, full curve). With COc1ccc(NC(=O)c2cc(OCCCN(C)C)nn2Cc2ccccc2)cc1 the assay gave potency 25118 nM (cytotoxic, partial curve). O=c1c(CCc2ccccc2)nc2cnc(N3CCNCC3)nc2n1C1CC1 read potency 251.2 nM (rising, full curve). With Cc1nc2cnc(N3CCN(C)CC3)nc2n(-c2ccccc2)c1=O the assay gave potency 199.5 nM (rising, full curve). For COc1cccc(CN2CCN(C(=O)c3ccc(-c4ccccc4)cc3)CC2)c1 the result was potency 3756 nM (cytotoxic, partial curve, poor fit). N#CCCn1c(=O)c(-c2ccc(Cl)cc2)nc2cnc(OCc3ccccc3)nc21 gave potency 112.2 nM (rising, full curve). COC(=O)[C@H]1[C@H]2C[C@@H]3c4[nH]c5cc(OC)ccc5c4CCN3C[C@H]2C[C@@H](OC(=O)/C=C/c2ccc(O)c(OC)c2)[C@@H]1OC gave potency 223.9 nM (rising, full curve).

For COc1ccc(CNc2ncnc3ccc(-c4ccccc4OC)cc23)c(OC)c1 the result was potency 125.9 nM (rising, full curve, poor fit). For O=C(Nc1cccc(C(=O)Nc2ccc(S(=O)(=O)O)c3cc(S(=O)(=O)O)cc(S(=O)(=O)O)c23)c1)Nc1cccc(C(=O)Nc2ccc(S(=O)(=O)O)c3cc(S(=O)(=O)O)cc(S(=O)(=O)O)c23)c1 the result was potency 89.1 nM (rising, full curve). CCN(CC)C(=S)SSC(=S)N(CC)CC gave potency 199.5 nM (cytotoxic, full curve, poor fit). For Clc1ccccc1-c1nc(N2CCNCC2)c2ccccc2n1 the result was potency 177.8 nM (rising, full curve, poor fit). C[C@H](N)Cc1c[nH]c2ccc(OCc3cccs3)cc12 read potency 177.8 nM (rising, full curve, poor fit). For COc1c2c(c(C(=O)/C=C/C(C)=C/c3ccccc3)c3c1OCO3)CCN(C)C2 the result was potency 2239 nM (cytotoxic, full curve).

Repeated from the top, 2 entries:

Compound	potency (nM)	curve as filed
COc1cc2ncnc(Nc3ccc(F)c(Cl)c3)c2cc1OCCCN1CCOCC1	17782	cytotoxic, partial curve
NC(N)=NC(N)=Nc1ccccc1	112.2	rising, full curve